Values from PubChem BioAssay AID1259254 (NCATS, 2017)

Test: 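Finding genes that stop cells copying their DNA twice in one cycle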 (primary screen)
Cells: human HCT116 colorectal cancer cells
Reagents: single siRNA against human genes
Duration: 3 days
Measured: 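Imaged Hoechst DNA stain sorts each cell into a cycle phase by DNA amount; per plate, G2 fraction set to 0% for non-targeting and 100% for GMNN siRNA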
Scale: G2 robust z-score and G2 cells, % of GMNN control: higher = more G2 cells, more excess DNA replication
Hit rule: 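An siRNA counts as active if its G2 robust z-score lies at least 5 MADs above the screen median; here such calls match roughly 38% of GMNN control or more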
This is an unselected part of about 59,000 reagents. Of all reagents, about 1,550 (2.6%) got an active call. 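G2 share is only a proxy for re-replication; each gene was hit by three separate siRNAs, and active genes were retested.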 Unmarked entries are inactive. Reagents against one gene are numbered here. Not all columns of the deposit are shown. Not stated in the record: the amount of reagent.

For IFRD1 (GeneID 3475) #1, what was measured?
G2 robust z-score: -1.4; G2 cells, % of GMNN control: -6.91

With IFRD1 (GeneID 3475) #2, what was measured?
G2 robust z-score: -0.219; G2 cells, % of GMNN control: 1.43

Which result is listed for IFRD1 (GeneID 3475) #3?
G2 robust z-score: -0.135; G2 cells, % of GMNN control: 2.02

What is on record for A4GNT (GeneID 51146) #1?
G2 robust z-score: 0.0928; G2 cells, % of GMNN control: 3.62

What did the screen give for A4GNT (GeneID 51146) #2?
G2 robust z-score: -0.327; G2 cells, % of GMNN control: 0.67

For A4GNT (GeneID 51146) #3, how do the results read?
G2 robust z-score: 0.588; G2 cells, % of GMNN control: 7.1

With P2RY4 (GeneID 5030) #1, what was measured?
G2 robust z-score: -0.647; G2 cells, % of GMNN control: -1.58

For P2RY4 (GeneID 5030) #2, how do the results read?
G2 robust z-score: -1.25; G2 cells, % of GMNN control: -5.84

What is on record for P2RY4 (GeneID 5030) #3?
G2 robust z-score: -0.284; G2 cells, % of GMNN control: 0.972

Laid out differently: 2 of the entries above.
{"gene knocked down": "P2RY4 (GeneID 5030)", "siRNA no.": 1, "G2 robust z-score": -0.647, "G2 cells, % of GMNN control": -1.58}
{"gene knocked down": "P2RY4 (GeneID 5030)", "siRNA no.": 2, "G2 robust z-score": -1.25, "G2 cells, % of GMNN control": -5.84}

Next records follow:
What is on record for ADAMTS8 (GeneID 11095) #1?
G2 robust z-score: 6.81 (active); G2 cells, % of GMNN control: 50.9

For ADAMTS8 (GeneID 11095) #2, what was measured?
G2 robust z-score: -0.205; G2 cells, % of GMNN control: 1.53

With ADAMTS8 (GeneID 11095) #3, how do the results read?
G2 robust z-score: 0.795; G2 cells, % of GMNN control: 8.56

What did the screen give for WDFY2 (GeneID 115825) #1?
G2 robust z-score: -0.215; G2 cells, % of GMNN control: 1.46

How did the screen score WDFY2 (GeneID 115825) #2?
G2 robust z-score: 0.159; G2 cells, % of GMNN control: 4.09

What did the screen give for WDFY2 (GeneID 115825) #3?
G2 robust z-score: -0.208; G2 cells, % of GMNN control: 1.5

Which result is listed for SLC29A3 (GeneID 55315) #1?
G2 robust z-score: 1.89; G2 cells, % of GMNN control: 16.3

Which result is listed for SLC29A3 (GeneID 55315) #2?
G2 robust z-score: -0.798; G2 cells, % of GMNN control: -2.65

What is on record for SLC29A3 (GeneID 55315) #3?
G2 robust z-score: 1.84; G2 cells, % of GMNN control: 15.9
